The record followed here is PubChem BioAssay AID2685 (National Center for Advancing Translational Sciences (NCATS), 2010).

The nature of the experiment: qHTS Assay for Lipid Storage Modulators in Drosophila S3 Cells.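 For cell number change: cells counted by Cell Tracker Red CMTPX staining in the red channel.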 Particulars: BODIPY lipid droplet fluorescence, 18-24 h; for cell number change: measured here: cell count max response, cells fed with added oleic acid. The essentials: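 Laser-scanning cytometry quantifies lipid droplet accumulation (500–530 nm total intensity; droplet/cell object ratio) in oleic acid-fed (400 uM added) Drosophila S3 cells treated with a concentration series. 20 uM Triacsin C defined 100% inhibition.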
Background: In qHTS, concentration-response curves come from the screen itself.

[1] abbreviates: measured here: lipid fluorescence (Fed channel) AC50, cells fed with added oleic acid.
[2] abbreviates: measured here: cell number channel AC50, cells fed with added oleic acid.

The other results are listed elsewhere or left out. Shown are side measurements of this screen, not its main read-out; they come without a call. The list favours compounds with an active or inconclusive main result. Potencies come from curve fits of mixed quality, noted in brackets.

For the compound `COc1ccccc1N(Cc1cc(=O)[nH]c2ccccc12)C(C)=O`, the cell number change came to 12.6%. For the same compound, the AC50 under setting [1] was 29.1 µM [rising, single point].
Turning to `CCOc1cc(C(=S)N2CCOCC2)ccc1OS(=O)(=O)c1ccc(OC)cc1`, the cell number change was -43.9%. Moreover, the AC50 under setting [1] was 6.51 µM [rising, single point].
As for `O=C(NCc1cccs1)c1ccc(CS(=O)Cc2ccccc2Cl)o1` (centres undefined), the cell number change was -22.6%. The AC50 under setting [1] is 1.46 µM [rising, full curve].
On to `CCCN1C(=O)/C(=C/c2ccc(C)s2)SC1=Nc1ccc(OC)cc1`, for which the cell number change is -8.65%.
Take `Brc1ccc(-c2nnc3sc(CN4CCN(c5ccccc5)CC4)cn23)cc1`: the cell number change amounted to 8.28%. Further, the AC50 under setting [1] is 0.0231 µM [rising, full curve, poor fit].
Turning to `COc1cc(OC)c(OC)cc1CNC(=O)c1ccc(COc2ccccc2)cc1`, the cell number change was determined as 10.1%. In addition, the AC50 under setting [1] was 6.51 µM [rising, single point].
`Cc1ccc(NC(=O)CCS(=O)(=O)c2ccc3c(c2)NC(=O)C(C)S3)cc1Cl` (centres undefined): the cell number change was found to be 26.3%. The AC50 under setting [1] was 2.31 µM [rising, partial curve].
Consider `CC(C)n1nc(C(=O)NCCc2ccc(S(N)(=O)=O)cc2)c2ccccc2c1=O`, for which the cell number change stood at 4.79%.
For the compound `COc1ccccc1C1NC(=O)NC(C)=C1C(C)=O` (centres undefined), the AC50 under setting [1] was 29.1 µM [falling, single point].
As for `O=C(COC(=O)Cc1ccc(Cl)cc1)NCc1ccc2c(c1)OCO2`, under setting [1], the AC50 is 0.651 µM [falling, single point].
As to `O=C(NC1CCN(Cc2ccccc2)C1)c1cc(S(=O)(=O)N2CCOCC2)ccc1Cl` (centres undefined), the cell number change was -25.3%. Under setting [1], the AC50 is 29.1 µM [falling, single point].
In the case of `CCOC(=O)c1c(C)[nH]c(C)c1S(=O)(=O)N(C)CC(=O)NCc1cccc(C)c1`, the cell number change is -4.01%.
Take `CC(=O)Nc1ccccc1OCC(=O)NC1CCCCC1C` (centres undefined): the cell number change turned out to be 16.3%. Further, the AC50 under setting [1] was 0.103 µM [falling, full curve, poor fit].
For the compound `CCOc1ccc(N2C(=O)C3ON(c4ccccc4)C(c4cccs4)C3C2=O)cc1` (centres undefined), under setting [1], the AC50 was 0.164 µM [rising, full curve, poor fit].
The same measure, in the same setting: then `CN(C)c1ccc(NC(=O)c2ccc(Cn3cc([N+](=O)[O-])cn3)cc2)cc1`, with 0.517 µM [rising, single point].
For the compound `Cc1cc(C)n(-c2nc3c(c(=O)n(C)c(=O)n3C)n2CCO)n1`, the cell number change came out at 39.7%.
As for `Cc1ccc(S(=O)(=O)N2CCN(C(=O)COC(=O)C3CCC3)CC2)cc1`, the cell number change is -58.6%. For the same compound, the AC50 under setting [2] was 25.9 µM [falling, partial curve].
As to `Cc1ccc(C)c(N=Cc2cc3c(cc2[N+](=O)[O-])OCO3)c1`, the cell number change was -32.9%. Further, the AC50 under setting [2] is 29.1 µM [falling, single point].
For the compound `O=C(Nc1ccc(COc2ccccc2)cc1)Nc1cccc(C(=O)O)c1`, the cell number change turned out to be 24.7%. Further, the AC50 under setting [1] is 18.4 µM [rising, partial curve].
For `CC(C)Oc1ccc(C(=O)NCCCNC(=O)c2ccccn2)cc1`, the cell number change is -22.9%. In addition, the AC50 under setting [2] is 0.116 µM [falling, full curve, poor fit]. In addition, under setting [1], the AC50 was 10.3 µM [rising, partial curve].
`Cc1ccc(C2=N/C(=C\c3cccs3)C(=O)N2Nc2ccccc2)cc1`: the cell number change was 10.4%. Under setting [1], the AC50 was 0.0651 µM [rising, full curve, poor fit].
With `CSc1nnnn1-c1ccc(C(=O)OCC(=O)N2CCOCC2)cc1`, the cell number change worked out at 17.7%. Also, the AC50 under setting [1] is 5.8 µM [falling, single point].
Take `CN(C)c1ccc(NC(=O)COC(=O)c2cc(Cl)ccc2[N+](=O)[O-])cc1`: the cell number change was determined as 10.7%. Also, the AC50 under setting [2] is 7.31 µM [rising, partial curve, poor fit].
`COc1cc(C(=O)Nc2cccc(C)c2C)ccc1OCC(=O)N1CCOCC1`: the cell number change is -3.76%. Besides, under setting [1], the AC50 is 4.11 µM [rising, full curve, poor fit].
As to `CC1Oc2ccccc2N(CC(=O)N2CCc3ccccc32)C1=O` (centres undefined), the cell number change was 66.5%. Moreover, the AC50 under setting [2] is 18.4 µM [rising, single point]. Under setting [1], the AC50 is 5.17 µM [rising, single point].
Take `O=C(CC1(O)C(=O)N(CN2CCOCC2)c2ccccc21)c1ccccc1` (centres undefined): the cell number change was -63.5%. The AC50 under setting [2] is 20.6 µM [falling, single point].
Regarding `CCn1c(=O)cc(OCC(=O)N2CCN(c3cccc(C(F)(F)F)c3)CC2)c2ccccc21`, the cell number change was -13.7%.
As to `CC(C)Oc1ccc(C(=O)N/N=C/c2ccc(-c3ccc(S(=O)(=O)Nc4ncccn4)cc3)o2)cc1`, the cell number change is -77.1%. Besides, under setting [2], the AC50 was 32.6 µM [falling, single point]. In addition, the AC50 under setting [1] is 29.1 µM [falling, partial curve].
Regarding `CC(C)CN(C(=O)COC(=O)CCc1c[nH]c2ccccc12)c1c(N)n(Cc2ccccc2)c(=O)[nH]c1=O`, the cell number change came out at 18.9%.
Take `COc1cc(NC(=O)COC(=O)CC(NC(C)=O)c2ccccc2)cc(OC)c1` (centres undefined): the cell number change is -5.71%.
Take `O=C(NCCNc1ccc(Cl)cc1[N+](=O)[O-])c1ccccc1F`: the cell number change was -24.9%. Besides, the AC50 under setting [1] is 13 µM [falling, partial curve, poor fit].
Consider `CCOc1cc(N2CCOCC2)c(OCC)cc1NC(=O)CSc1ncccn1`, for which the half-maximal activity concentration (AC50) under setting [1] was 4.11 µM [rising, partial curve, poor fit].
On to `Cc1cc(C)nc(NC(=O)c2cccc(Cl)c2)n1`, for which the cell number change stood at 0.183%. The AC50 under setting [1] was 0.92 µM [rising, full curve, poor fit].
Take `CCCSCCCNC(=O)c1cc2c(s1)CS(=O)(=O)C2`: the cell number change was 46.2%. Moreover, under setting [2], the AC50 is 6.51 µM [rising, partial curve].
For the compound `CON/C=C(\C=Nc1ccc(F)cc1)c1ncc(C(F)(F)F)cc1Cl`, the AC50 under setting [2] was 0.103 µM [falling, full curve, poor fit].
On to `O=C(OCC1COc2ccccc2O1)c1c(F)cccc1F` (centres undefined), for which the cell number change is -0.908%.
For `O=C(CSc1ccc(-c2ccco2)nn1)Nc1cccc(F)c1`, the cell number change is -19.1%. Also, the AC50 under setting [1] is 14.6 µM [falling, partial curve, poor fit].
Consider `O[C@@H]1C2CCCC1[C@]1(O)CCCCC1C2` (some centres undefined), for which the cell number change stood at 25.6%.
On to `Cc1ccc(C(=O)OCC(=O)Nc2ccc(N3CCOCC3)cc2)cc1`, for which the cell number change is -32.9%. The AC50 under setting [2] is 2.06 µM [falling, full curve, poor fit].
For the compound `Cc1ccccc1NC(=O)c1nn(C)c2c1CS(=O)(=O)c1ccccc1-2`, the cell number change was -16.9%.
Take `Cc1ccccc1C1NC(c2ccccc2C)C(C)C(=O)C1C` (centres undefined): the cell number change stood at 6.97%. The concentration at half-maximal activity (AC50) under setting [1] is 18.4 µM [falling, single point].
As to `COc1ccc(S(=O)(=O)Nc2ccc3c(c2)N(C(C)=O)CCC3)cc1`, the cell number change was determined as 80.8%. Besides, the AC50 under setting [2] was 20.6 µM [rising, partial curve].
With `Cc1ccc(-c2nc(C)c(C(=O)O)s2)cc1`, the cell number change stood at 25.3%. Further, under setting [1], the AC50 is 20.6 µM [rising, single point].
As for `CCc1ccccc1NC(=O)CSc1nnc([C@@H]2CCCN2C(=O)OC(C)(C)C)o1`, the cell number change was -0.895%. In addition, under setting [1], the AC50 is 9.2 µM [rising, partial curve].
With `Cc1nc2ccccc2c2oc(C(=O)NCCCN3CCCC(C)C3)cc12` (centres undefined), the cell number change is 9.55%. For the same compound, under setting [1], the AC50 is 20.6 µM [rising, single point].
For `CCCCSc1nnc(-c2ccc(NC(=O)CC)cc2)n1C`, the cell number change was -18.8%. Further, under setting [1], the AC50 was 0.00411 µM [falling, full curve, poor fit].
Regarding `COc1cccc(/C=N/NC(=O)CC(C)O)c1OC/C=C/c1ccccc1` (centres undefined), the cell number change was -23.7%.
For `Cc1nc(NCc2ccco2)c2c(C)c(C)sc2n1`, the cell number change amounted to 9.51%. Further, under setting [1], the AC50 was 2.06 µM [rising, partial curve].
Take `O=C(COc1cc2oc(=O)c3c(c2cc1Cl)CCC3)NCC(O)c1ccccc1` (centres undefined): the cell number change is -24.2%. Also, the AC50 under setting [2] was 0.184 µM [falling, full curve, poor fit]. The AC50 under setting [1] is 29.1 µM [falling, single point].
In the case of `NS(=O)(=O)c1cccc(NC(=O)CCc2ccc(S(=O)(=O)N3CCOCC3)cc2)c1`, the cell number change was 5%.
For the compound `NC(=O)c1nsc(C(=O)N(c2ccc(F)cc2)C(C(=O)NCC2CCCO2)c2c[nH]c3ccccc23)c1N` (centres undefined), the cell number change is -4.35%.
Regarding `Cc1ccc(NC(=O)Cn2c(CCC(=O)O)ccc2-c2cccs2)cc1`, the cell number change came to 21.2%. Further, the AC50 under setting [1] was 0.00461 µM [falling, full curve, poor fit].
With `CC(Sc1ccccc1)C(=O)Nc1ccc(N2CCOCC2)cc1` (centres undefined), the AC50 under setting [2] was 3.66 µM [rising, partial curve].
Consider `Cc1nn(-c2ccccc2)c2[nH]c(=O)cc(C(F)F)c12`, for which the cell number change is -10.2%. Moreover, the AC50 under setting [1] was 8.2 µM [rising, partial curve].
Take `CCc1ccc(NC(=S)/N=C(\N)Nc2nc(C)c3cc(CC)ccc3n2)cc1`: the cell number change is -59.4%. The AC50 under setting [2] was 29.1 µM [falling, single point].
In the case of `COc1cc(-c2nc3cnccn3c2NC(C)(C)CC(C)(C)C)ccc1O`, the cell number change is -19%. Also, the AC50 under setting [1] is 2.91 µM [falling, full curve].
Regarding `CC(C)c1onc(C(=O)N(C)Cc2ccccc2)c1[N+](=O)[O-]`, the AC50 under setting [2] is 0.0058 µM [rising, full curve, poor fit].
Take `COc1ccccc1CC(=O)Nc1cccc(S(=O)(=O)N2CCOCC2)c1`: the cell number change worked out at 16.2%. For the same compound, the AC50 under setting [1] is 6.51 µM [rising, partial curve, poor fit].
On to `O=C(O)CCC(=O)N1N=C(c2ccccc2)CC1c1ccc(Br)cc1` (centres undefined), for which the cell number change is -11.5%. In addition, under setting [1], the half-maximal activity concentration (AC50) was 6.51 µM [rising, single point].
For the compound `O=C(O)CCc1ccc(-c2cccs2)n1-c1ccc(C(=O)O)cc1`, the cell number change amounted to 0.759%. Further, the AC50 under setting [1] was 0.00461 µM [rising, full curve, poor fit].
For the compound `O=C(NCc1cccc(Cl)c1)c1ccc(N2CC3CC(C2)c2cccc(=O)n2C3)c(NC(=O)c2cccnc2)c1` (centres undefined), the cell number change turned out to be 20.5%.
Consider `Cc1ccc2c(c1)N(C(=O)CCC(=O)NC1CCCCCC1)CC(C)O2` (centres undefined), for which the cell number change amounted to 9.22%. In addition, the AC50 under setting [1] was 25.9 µM [falling, single point].
Regarding `Cc1n[nH]c(=S)n1/N=C/c1ccc(OCc2ccc(Cl)cc2)cc1`, the cell number change is -12.8%. In addition, the AC50 under setting [1] was 2.31 µM [rising, partial curve, poor fit].
In the case of `CCN(CC)S(=O)(=O)c1ccc(C(=O)Nc2nnc(C(C)C)s2)cc1`, under setting [2], the AC50 is 2.31 µM [rising, single point].

In general, AC50 refers to the concentration at which the activity in the assay is half-maximal.
